Consider 1 molecule from doi:10.1101/424218.

By UniProt entry, the sequences of proteins in these tests, tags left out.
UniProt P22216, whole entry: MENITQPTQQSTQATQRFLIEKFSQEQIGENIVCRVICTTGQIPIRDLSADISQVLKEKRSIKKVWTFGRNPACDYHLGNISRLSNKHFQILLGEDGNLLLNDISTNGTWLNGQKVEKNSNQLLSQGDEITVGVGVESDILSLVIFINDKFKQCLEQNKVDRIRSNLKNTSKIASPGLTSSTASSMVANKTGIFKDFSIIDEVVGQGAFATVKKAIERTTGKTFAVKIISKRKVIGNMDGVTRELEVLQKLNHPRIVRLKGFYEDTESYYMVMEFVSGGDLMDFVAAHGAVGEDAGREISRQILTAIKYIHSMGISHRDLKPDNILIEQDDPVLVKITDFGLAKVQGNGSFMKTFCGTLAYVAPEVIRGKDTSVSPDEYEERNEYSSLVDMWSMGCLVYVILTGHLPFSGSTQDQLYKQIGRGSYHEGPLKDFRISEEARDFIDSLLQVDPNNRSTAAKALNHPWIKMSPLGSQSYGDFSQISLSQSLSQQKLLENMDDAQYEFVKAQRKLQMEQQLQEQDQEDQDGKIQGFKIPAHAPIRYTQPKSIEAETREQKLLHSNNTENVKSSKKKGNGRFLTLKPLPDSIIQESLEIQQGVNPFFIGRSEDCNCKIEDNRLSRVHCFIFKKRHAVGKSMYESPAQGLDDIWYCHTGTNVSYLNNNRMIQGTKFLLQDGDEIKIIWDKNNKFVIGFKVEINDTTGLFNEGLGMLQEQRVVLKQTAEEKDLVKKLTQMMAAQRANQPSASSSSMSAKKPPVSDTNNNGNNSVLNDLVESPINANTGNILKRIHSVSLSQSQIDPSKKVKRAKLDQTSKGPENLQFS

Results are given in words; binding and its absence hold for the method and conditions named. Binding seen in cells or lysates may run through a third protein. Some entries that bind do so weakly or less than the wild type. Tags and fused reporters may be left off the sequences shown.

For the assay, the target named is Rad53 (S. cerevisiae (endogenous in W303-derived strains)) (UniProt P22216). Description: co-IP.

B1: Rad9-HA (protein, UniProt P14737 1-1309)
chain: MSGQLVQWKSSPDRVTQSAIKEALHSPLADGDMNEMNVPVDPLENKVNSTNIIEGSPKANPNPVKFMNTSEIFQKSLGLLDESPRHDDELNIEVGDNDRPNANILHNERTPDLDRIANFFKSNRTPGKENLLTKYQSSDLEDTPLMLRKKMTFQTPTDPLEQKTFKKLKSDTGFCYYGEQNDGEENASLEVTEADATFVQMAERSADNYDCALEGIVTPKRYKDELSKSGGMQDERVQKTQIMISAESPNSISSYDKNKITGNGRTTRNVNKVFNNNEDNIGAIEEKNPVKKKSENYSSDDLRERNNQIIQSNESEEINELEKNLNVSGRENDVNNLDIDINSAVSGTPSRNNAEEEMYSSESVNNREPSKKWIFRYSKDKTENNSNRSTQIVNNPRTQEMPLDSISIDTQPLSKSFNTETNNELETQIIVSSLSQGISAQKGPVFHSTGQTEEIKTQIINSPEQNALNATFETPVTLSRINFEPILEVPETSSPSKNTMSKPSNSSPIPKEKDTFNIHEREVETNNVFSNDIQNSSNAATRDDIIIAGSSDFNEQKEITDRIYLQLSGKQISDSGSDETERMSPNELDTKKESTIMSEVELTQELPEVEEQQDLQTSPKKLVVEEETLMEIKKSKGNSLQLHDDNKECNSDKQDGTESLDVALIEHESKGQSSELQKNLMQLFPSESQEIIQNRRTIKRRQKDTIEIGEEEENRSTKTSPTKHLKRNSDLDAASIKREPSCSITIQTGETGSGKDSKEQSYVFPEGIRTADNSFLSKDDIIFGNAVWCQYTWNYKFYPGILLEVDTNQDGCWIYFETGRSLTKDEDIYYLDIRIGDAVTFDGNEYVVVGLECRSHDLNIIRCIRGYDTVHLKKKNASGLLGKRTLIKALSSISLDLSEWAKRAKIILEDNEKNKGDAYRYLRHPIRGRKSMTNVLSPKKHTDDEKDINTHTEVYNNEIESSSEKKEIVKKDSRDALAEHAGAPSLLFSSGEIRTGNVFDKCIFVLTSLFENREELRQTIESQGGTVIESGFSTLFNFTHPLAKSLVNKGNTDNIRELALKLAWKPHSLFADCRFACLITKRHLRSLKYLETLALGWPTLHWKFISACIEKKRIVPHLIYQYLLPSGESFRLSLDSPSKGGIIKSNNIFSFYTQFLRGSNLRDQICGVKKMLNDYIVIVWGRSELDSFVKFAFACLSAGRMLTIDLPNIDVDDTEPLLNALDSLVPRIGSELSNRKLKFLIYANENNGKSQMKLLERLRSQISLKFKKFNYIFHTESKEWLIQTIINEDTGFHDDITDNDIYNTISEVR
In the case of B1, the binding entry is recorded as “binds”.
